# Laboratory results reported in the supplement of paper PMC10849652.
# Amino acid sequences for entries named in this document (tags omitted). A change or cut given only in a name is not applied to a line headed by its entry.
# UniProt P27469: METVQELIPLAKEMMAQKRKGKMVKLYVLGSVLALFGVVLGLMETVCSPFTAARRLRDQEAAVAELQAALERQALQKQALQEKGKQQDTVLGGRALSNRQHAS
# UniProt Q99988: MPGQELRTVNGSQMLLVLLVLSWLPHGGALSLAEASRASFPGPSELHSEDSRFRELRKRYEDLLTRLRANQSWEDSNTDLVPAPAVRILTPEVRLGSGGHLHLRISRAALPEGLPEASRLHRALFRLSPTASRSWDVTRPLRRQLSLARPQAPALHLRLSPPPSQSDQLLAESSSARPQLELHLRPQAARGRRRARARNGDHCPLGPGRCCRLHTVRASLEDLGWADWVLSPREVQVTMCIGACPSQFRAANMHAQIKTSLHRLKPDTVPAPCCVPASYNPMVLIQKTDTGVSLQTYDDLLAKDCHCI
# UniProt Q5JV73, whole entry, looked up: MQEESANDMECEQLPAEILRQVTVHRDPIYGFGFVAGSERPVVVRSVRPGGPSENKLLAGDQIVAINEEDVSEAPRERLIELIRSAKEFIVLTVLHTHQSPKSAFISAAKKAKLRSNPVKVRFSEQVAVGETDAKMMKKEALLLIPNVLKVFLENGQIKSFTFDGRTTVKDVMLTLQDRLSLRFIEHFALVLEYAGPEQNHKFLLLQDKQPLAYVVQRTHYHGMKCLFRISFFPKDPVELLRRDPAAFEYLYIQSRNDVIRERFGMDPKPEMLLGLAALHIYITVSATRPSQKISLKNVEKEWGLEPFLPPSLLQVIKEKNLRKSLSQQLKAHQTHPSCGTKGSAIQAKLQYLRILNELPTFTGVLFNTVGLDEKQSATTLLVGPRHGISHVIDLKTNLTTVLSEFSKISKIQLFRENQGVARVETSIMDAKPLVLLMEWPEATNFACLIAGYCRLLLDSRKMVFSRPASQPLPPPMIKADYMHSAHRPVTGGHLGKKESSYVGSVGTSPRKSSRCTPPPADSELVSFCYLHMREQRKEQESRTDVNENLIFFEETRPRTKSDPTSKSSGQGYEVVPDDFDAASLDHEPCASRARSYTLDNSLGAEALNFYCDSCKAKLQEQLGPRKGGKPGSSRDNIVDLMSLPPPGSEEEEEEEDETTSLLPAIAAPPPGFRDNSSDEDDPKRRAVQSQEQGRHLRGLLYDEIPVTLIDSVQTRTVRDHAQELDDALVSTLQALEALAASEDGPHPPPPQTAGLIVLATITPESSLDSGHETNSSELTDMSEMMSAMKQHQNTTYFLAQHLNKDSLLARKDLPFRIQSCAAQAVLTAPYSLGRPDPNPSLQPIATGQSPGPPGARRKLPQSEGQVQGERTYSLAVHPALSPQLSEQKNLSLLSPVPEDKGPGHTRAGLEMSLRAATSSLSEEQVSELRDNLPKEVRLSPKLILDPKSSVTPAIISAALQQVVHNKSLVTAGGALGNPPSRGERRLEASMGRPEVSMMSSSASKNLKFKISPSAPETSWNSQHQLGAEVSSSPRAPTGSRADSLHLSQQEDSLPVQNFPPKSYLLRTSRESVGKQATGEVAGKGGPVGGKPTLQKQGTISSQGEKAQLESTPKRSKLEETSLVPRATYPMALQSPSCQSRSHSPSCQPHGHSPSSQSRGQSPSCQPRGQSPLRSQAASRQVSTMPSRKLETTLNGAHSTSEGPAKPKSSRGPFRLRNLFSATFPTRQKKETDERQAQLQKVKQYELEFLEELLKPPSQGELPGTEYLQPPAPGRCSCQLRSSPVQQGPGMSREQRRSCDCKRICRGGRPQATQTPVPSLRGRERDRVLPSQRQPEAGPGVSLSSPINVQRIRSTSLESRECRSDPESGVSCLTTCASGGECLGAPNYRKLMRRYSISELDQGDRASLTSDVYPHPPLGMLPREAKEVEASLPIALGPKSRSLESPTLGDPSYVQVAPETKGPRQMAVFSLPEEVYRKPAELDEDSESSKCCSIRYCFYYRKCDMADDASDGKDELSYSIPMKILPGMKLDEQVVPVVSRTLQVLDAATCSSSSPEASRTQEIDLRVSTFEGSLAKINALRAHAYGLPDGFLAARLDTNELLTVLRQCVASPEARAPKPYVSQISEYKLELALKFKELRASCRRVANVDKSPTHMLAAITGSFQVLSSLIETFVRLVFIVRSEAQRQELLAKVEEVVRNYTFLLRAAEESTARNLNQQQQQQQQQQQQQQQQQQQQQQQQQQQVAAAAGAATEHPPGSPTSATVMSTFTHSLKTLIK
# UniProt O14772: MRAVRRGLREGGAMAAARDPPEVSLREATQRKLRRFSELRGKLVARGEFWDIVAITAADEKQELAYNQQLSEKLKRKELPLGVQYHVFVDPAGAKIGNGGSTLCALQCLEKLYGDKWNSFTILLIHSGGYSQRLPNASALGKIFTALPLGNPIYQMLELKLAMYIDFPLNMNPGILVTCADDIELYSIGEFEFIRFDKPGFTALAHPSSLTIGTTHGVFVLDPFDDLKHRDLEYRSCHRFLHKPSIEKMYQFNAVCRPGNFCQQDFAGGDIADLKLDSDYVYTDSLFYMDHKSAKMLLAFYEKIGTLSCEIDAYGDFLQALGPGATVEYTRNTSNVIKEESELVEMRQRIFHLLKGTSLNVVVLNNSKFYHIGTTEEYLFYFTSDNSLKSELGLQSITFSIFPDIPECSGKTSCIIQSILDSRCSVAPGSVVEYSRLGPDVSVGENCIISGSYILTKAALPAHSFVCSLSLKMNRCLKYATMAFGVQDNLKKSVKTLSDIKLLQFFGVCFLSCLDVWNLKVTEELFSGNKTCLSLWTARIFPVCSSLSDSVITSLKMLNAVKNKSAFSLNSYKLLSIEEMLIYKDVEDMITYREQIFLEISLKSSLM
# UniProt Q8IVH2: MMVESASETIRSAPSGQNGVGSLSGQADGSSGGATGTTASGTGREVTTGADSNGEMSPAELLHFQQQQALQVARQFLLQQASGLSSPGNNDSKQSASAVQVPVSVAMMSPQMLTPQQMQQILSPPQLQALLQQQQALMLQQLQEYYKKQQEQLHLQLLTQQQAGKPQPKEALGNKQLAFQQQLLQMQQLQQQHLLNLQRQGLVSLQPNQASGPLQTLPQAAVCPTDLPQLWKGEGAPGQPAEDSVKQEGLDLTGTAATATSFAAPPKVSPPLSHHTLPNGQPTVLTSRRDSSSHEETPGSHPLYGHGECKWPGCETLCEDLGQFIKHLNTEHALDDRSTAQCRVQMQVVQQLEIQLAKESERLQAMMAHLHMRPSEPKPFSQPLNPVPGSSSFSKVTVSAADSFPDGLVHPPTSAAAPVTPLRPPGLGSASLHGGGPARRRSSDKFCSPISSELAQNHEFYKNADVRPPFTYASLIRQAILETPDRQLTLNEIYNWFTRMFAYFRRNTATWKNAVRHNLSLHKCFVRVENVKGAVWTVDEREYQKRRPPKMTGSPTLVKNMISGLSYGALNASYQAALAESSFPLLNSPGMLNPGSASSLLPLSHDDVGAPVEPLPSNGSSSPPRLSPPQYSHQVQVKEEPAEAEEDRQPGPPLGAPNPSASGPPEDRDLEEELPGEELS
# UniProt O75879: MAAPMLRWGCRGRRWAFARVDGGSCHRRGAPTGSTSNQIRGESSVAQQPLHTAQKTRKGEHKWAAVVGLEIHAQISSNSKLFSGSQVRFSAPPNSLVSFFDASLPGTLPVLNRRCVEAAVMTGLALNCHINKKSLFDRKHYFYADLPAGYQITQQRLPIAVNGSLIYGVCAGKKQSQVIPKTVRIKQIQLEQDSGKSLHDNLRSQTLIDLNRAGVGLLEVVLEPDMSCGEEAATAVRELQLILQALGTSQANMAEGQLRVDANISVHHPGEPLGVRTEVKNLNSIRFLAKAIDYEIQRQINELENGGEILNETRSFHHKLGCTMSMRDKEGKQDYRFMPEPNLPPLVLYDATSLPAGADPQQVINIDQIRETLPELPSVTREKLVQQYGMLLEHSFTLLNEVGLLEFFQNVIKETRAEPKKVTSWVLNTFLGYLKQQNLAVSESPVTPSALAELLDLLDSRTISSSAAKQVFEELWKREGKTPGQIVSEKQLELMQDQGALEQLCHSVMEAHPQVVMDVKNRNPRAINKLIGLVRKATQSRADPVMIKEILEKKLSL
# UniProt P24522: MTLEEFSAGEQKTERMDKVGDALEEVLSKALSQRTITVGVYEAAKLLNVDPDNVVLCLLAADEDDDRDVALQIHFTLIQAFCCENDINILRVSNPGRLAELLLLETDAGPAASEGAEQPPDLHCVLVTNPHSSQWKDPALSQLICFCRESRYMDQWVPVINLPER
# UniProt Q9UP38, whole entry, looked up: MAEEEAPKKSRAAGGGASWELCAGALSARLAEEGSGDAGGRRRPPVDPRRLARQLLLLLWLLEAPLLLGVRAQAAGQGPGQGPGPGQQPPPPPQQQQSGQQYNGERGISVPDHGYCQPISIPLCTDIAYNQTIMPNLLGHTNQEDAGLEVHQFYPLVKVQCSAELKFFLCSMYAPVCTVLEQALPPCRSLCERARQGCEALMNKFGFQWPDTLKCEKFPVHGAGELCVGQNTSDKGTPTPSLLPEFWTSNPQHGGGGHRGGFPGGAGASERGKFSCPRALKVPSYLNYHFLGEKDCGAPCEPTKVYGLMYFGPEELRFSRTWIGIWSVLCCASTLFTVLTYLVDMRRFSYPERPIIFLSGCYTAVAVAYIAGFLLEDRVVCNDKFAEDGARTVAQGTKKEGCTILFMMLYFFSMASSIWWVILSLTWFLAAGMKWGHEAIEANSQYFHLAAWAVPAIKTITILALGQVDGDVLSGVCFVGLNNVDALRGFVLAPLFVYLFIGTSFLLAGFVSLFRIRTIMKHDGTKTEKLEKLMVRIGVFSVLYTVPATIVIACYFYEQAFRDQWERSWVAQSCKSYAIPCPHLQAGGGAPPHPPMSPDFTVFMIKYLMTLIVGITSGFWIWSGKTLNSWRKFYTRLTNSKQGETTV
# UniProt Q9BZ67: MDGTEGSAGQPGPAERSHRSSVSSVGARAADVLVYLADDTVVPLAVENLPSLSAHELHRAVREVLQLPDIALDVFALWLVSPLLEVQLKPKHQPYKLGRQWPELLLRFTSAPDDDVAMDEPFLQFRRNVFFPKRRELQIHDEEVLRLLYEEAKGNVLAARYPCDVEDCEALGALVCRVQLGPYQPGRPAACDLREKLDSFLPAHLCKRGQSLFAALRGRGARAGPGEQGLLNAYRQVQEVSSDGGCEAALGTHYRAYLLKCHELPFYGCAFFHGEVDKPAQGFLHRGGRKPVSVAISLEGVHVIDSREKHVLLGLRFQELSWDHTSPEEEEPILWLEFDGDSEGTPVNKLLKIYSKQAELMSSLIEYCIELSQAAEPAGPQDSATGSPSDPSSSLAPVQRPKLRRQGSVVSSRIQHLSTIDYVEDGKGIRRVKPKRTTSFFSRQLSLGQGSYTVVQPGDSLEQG
# UniProt Q96RP9: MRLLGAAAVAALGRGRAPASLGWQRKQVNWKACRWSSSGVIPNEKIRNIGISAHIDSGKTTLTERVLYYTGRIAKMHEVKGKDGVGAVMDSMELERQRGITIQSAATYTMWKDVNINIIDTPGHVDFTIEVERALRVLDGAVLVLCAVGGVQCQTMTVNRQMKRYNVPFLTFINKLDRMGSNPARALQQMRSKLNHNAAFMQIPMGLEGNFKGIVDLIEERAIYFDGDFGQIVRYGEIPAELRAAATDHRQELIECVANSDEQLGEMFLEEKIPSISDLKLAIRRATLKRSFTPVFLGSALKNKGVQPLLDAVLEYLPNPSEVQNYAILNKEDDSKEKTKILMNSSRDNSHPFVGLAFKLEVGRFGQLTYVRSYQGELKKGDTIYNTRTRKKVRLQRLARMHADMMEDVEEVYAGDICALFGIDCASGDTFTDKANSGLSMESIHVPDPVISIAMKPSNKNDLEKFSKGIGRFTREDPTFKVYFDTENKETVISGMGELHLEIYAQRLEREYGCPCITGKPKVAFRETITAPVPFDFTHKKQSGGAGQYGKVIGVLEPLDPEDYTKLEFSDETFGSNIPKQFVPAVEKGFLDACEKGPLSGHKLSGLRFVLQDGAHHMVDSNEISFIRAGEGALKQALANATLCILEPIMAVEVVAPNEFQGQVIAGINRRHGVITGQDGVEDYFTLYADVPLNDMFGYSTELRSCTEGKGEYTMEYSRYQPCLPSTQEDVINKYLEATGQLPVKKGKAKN
# UniProt Q5VTD9: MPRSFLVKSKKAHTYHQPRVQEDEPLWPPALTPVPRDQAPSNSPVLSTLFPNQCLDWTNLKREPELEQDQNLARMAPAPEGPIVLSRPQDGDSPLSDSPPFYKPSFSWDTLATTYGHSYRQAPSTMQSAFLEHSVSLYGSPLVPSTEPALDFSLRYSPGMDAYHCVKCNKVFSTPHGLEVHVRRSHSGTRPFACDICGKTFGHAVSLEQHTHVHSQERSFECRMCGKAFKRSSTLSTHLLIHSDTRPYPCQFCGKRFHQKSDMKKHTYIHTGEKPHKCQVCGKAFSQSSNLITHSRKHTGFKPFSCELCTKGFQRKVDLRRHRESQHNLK
# UniProt A2VDF0: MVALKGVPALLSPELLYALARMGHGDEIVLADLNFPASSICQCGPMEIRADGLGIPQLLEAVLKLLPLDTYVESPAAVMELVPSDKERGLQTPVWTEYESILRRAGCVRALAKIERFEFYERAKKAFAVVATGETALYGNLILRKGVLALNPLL
# This is one part of the list.
# How the values were obtained:
# Assay in all cases: log2 fold change, soluble protein after heating vs DMSO (PISA); higher = thermal stabilisation; K562 lysate, 10 uM; active = over 0.2 and 3.5 SD of the protein, either way, in both replicates (recomputed)
# nilotinib = compound: Cc1cn(-c2cc(NC(=O)c3ccc(C)c(Nc4nccc(-c5cccnc5)n4)c3)cc(C(F)(F)F)c2)cn1 [nilotinib]
# Outline: (§1)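 Thermal stability, expressed as log-two fold change relative to solvent controls, is given from duplicates. Crude K562 extract in PBS pH 7.4 with 1 mM MgCl2, at 1 mg/mL protein, was treated with 10 μM compound for 30 min and heated in aliquots for 3 min across 48°C-58°C. After pooling, adjustment to 0.5% NP-40 at 4°C and centrifugation at 21,000xg for 90 min, supernatant protein was measured by TMTpro 16plex LC-MS/MS with channel sums equalised.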
# [1] = compound: Cc1nc(Nc2n[nH]c3c2CN(C(=O)N[C@H](CN(C)C)c2ccccc2)C3(C)C)c2sccc2n1
# Outline: as §1
# dasatinib = compound: Cc1nc(Nc2ncc(C(=O)Nc3c(C)cccc3Cl)s2)cc(N2CCN(CCO)CC2)n1 [dasatinib]
# Outline: as §1
# [2] = compound: Cc1ncc(-c2ccnc(Nc3ccc(S(C)(=O)=O)cc3)n2)n1C(C)C
# Outline: as §1
# [3] = compound: Cn1cc(-c2ccc3c(c2)CCN3C(=O)Cc2cccc(C(F)(F)F)c2)c2c(N)ncnc21
# Outline: as §1
# quisinostat = compound: Cn1cc(CNCC2CCN(c3ncc(C(=O)NO)cn3)CC2)c2ccccc21 [quisinostat]
# Outline: as §1
# tipifarnib = compound: Cn1cncc1[C@@](N)(c1ccc(Cl)cc1)c1ccc2c(c1)c(-c1cccc(Cl)c1)cc(=O)n2C [tipifarnib]
# Outline: as §1
# [4] = compound: NC(=O)Nc1cc(-c2cccc(F)c2)sc1C(=O)N[C@H]1CCCNC1
# Outline: as §1
# [5] = compound: NC1(c2ccc(-c3nc4ccn5c(=O)[nH]nc5c4cc3-c3ccccc3)cc2)CCC1
# Outline: as §1
# [6] = compound: NCC(=O)Nc1ccc(-n2nc(C(F)(F)F)cc2-c2ccc3c(ccc4ccccc43)c2)cc1
# Outline: as §1
# vorinostat = compound: O=C(CCCCCCC(=O)Nc1ccccc1)NO [vorinostat]
# Outline: as §1
# silmitasertib = compound: O=C(O)c1ccc2c(c1)nc(Nc1cccc(Cl)c1)c1ccncc12 [silmitasertib]
# Outline: as §1
# [7] = compound: O=C1NC(=O)C(c2cnc3ccccn23)=C1c1cn2c3c(cc(F)cc13)CN(C(=O)N1CCCCC1)CC2
# Outline: as §1
# entospletinib = compound: c1cn2cc(-c3ccc4cn[nH]c4c3)nc(Nc3ccc(N4CCOCC4)cc3)c2n1 [entospletinib]
# Outline: as §1
# [8] = compound: NC(=O)c1cnc(N[C@@H]2CCCC[C@@H]2N)nc1Nc1cccc(-n2nccn2)c1
# Outline: as §1
Target,log2 fold change (nilotinib),log2 fold change [1],log2 fold change (dasatinib),log2 fold change [2],log2 fold change [3],log2 fold change (quisinostat),log2 fold change (tipifarnib),log2 fold change [4],log2 fold change [5],log2 fold change [6],log2 fold change (vorinostat),log2 fold change (silmitasertib),log2 fold change [7],log2 fold change (entospletinib),log2 fold change [8]
FOXP1 (UniProt Q9H334),inactive: 0.033,inactive: 0.082,inactive: -0.047,inactive: -0.179,inactive: 0.092,inactive: -0.056,inactive: 0.015,inactive: 0.005,inactive: 0.034,inactive: 0.088,inactive: -0.18,inactive: -0.016,inactive: 0.024,inactive: -0.018,–
FUT11 (UniProt Q495W5),inactive: -0.037,inactive: -0.026,–,inactive: -0.011,–,inactive: 0.025,inactive: 0.052,inactive: 0.078,inactive: -0.088,–,inactive: 0.058,inactive: 0.049,inactive: -0.083,inactive: 0.071,inactive: 0.107
G0S2 (UniProt P27469),inactive: 0.084,inactive: 0.199,–,inactive: 0.271,–,inactive: -0.03,inactive: 0.155,inactive: 0.035,inactive: 0.087,–,inactive: -0.169,inactive: 0.016,inactive: 0.039,inactive: 0.115,–
FUNDC2 (UniProt H7C0K8),inactive: -0.136,inactive: 0.166,–,inactive: 0.162,–,–,inactive: 0.073,–,–,inactive: 0.193,–,–,–,–,inactive: -0.033
GDF15 (UniProt Q99988),inactive: 0.146,inactive: 0.065,inactive: 0.119,inactive: -0.01,inactive: -0.095,inactive: 0.007,inactive: 0.066,inactive: -0.043,inactive: 0.089,inactive: 0.081,inactive: 0.043,inactive: 0.065,inactive: -0.12,–,–
FURIN (UniProt P09958),inactive: -0.018,inactive: -0.122,inactive: 0.131,inactive: -0.007,inactive: -0.04,inactive: -0.009,inactive: 0.03,inactive: 0.027,inactive: -0.032,inactive: 0.024,inactive: 0.048,inactive: -0.045,inactive: 0.008,inactive: 0.123,–
FPGS (UniProt Q05932),inactive: 0.024,inactive: 0.074,inactive: 0.041,inactive: 0.016,inactive: -0.025,–,inactive: -0.045,–,–,–,–,–,–,inactive: -0.224,–
FRMPD3 (UniProt Q5JV73),inactive: -0.178,inactive: 0.047,–,inactive: -0.286,–,–,inactive: 0.075,–,inactive: -0.065,inactive: 0.029,inactive: -0.308,inactive: 0,–,–,inactive: 0.158
FPGT (UniProt O14772),inactive: -0.006,inactive: -0.004,inactive: -0.057,inactive: 0.029,inactive: -0.014,inactive: -0.105,inactive: -0.036,inactive: 0.046,inactive: -0.03,inactive: -0.014,active: -0.574,inactive: 0.008,inactive: -0.015,inactive: -0.062,inactive: 0.035
FOXP4 (UniProt Q8IVH2),inactive: -0.004,inactive: -0.003,inactive: -0.011,inactive: -0.032,inactive: 0.304,–,inactive: -0.12,–,inactive: -0.029,inactive: 0.009,inactive: -0.207,inactive: 0,–,inactive: -0.102,–
GAA (UniProt P10253),inactive: 0.058,inactive: 0.115,–,inactive: 0.267,–,inactive: 0.024,inactive: -0.336,inactive: 0.007,inactive: -0.003,inactive: -0.038,inactive: -0.176,inactive: -0.092,inactive: -0.056,inactive: 0.068,inactive: -0.014
GATB (UniProt O75879),inactive: 0.003,inactive: 0.147,inactive: 0.041,inactive: -0.129,inactive: 0.197,–,inactive: -0.276,–,–,inactive: -0.026,–,–,–,–,inactive: 0.187
FSIP2 (UniProt Q5CZC0),inactive: -0.118,inactive: -0.023,inactive: -0.024,inactive: 0.014,inactive: -0.025,inactive: -0.411,inactive: -0.081,inactive: 0.051,inactive: -0.188,–,inactive: 0.15,inactive: -0.03,inactive: -0.083,–,inactive: -0.024
GADD45A (UniProt P24522),inactive: -0.112,inactive: 0.124,–,inactive: 0.092,–,inactive: -0.079,inactive: 0.133,inactive: -0.008,–,–,–,–,inactive: 0.022,–,–
GART (UniProt C9JZG2),inactive: -0.085,inactive: -0.033,–,inactive: 0.042,–,inactive: -0.373,inactive: -0.101,inactive: -0.02,–,–,–,–,inactive: -0.069,inactive: 0.037,inactive: 0.139
FZD1 (UniProt Q9UP38),inactive: -0.002,inactive: -0.027,–,inactive: 0.067,–,inactive: -0.064,inactive: -0.123,inactive: -0.039,–,–,–,–,inactive: 0.161,–,–
FRMD8 (UniProt Q9BZ67),inactive: -0.009,inactive: -0.154,inactive: -0.065,inactive: 0.095,inactive: -0.086,inactive: -0.501,inactive: 0.048,inactive: 0.05,inactive: -0.043,inactive: -0.023,inactive: 0.003,inactive: 0.02,inactive: -0.017,inactive: -0.081,–
FOXJ3 (UniProt Q9UPW0),inactive: 0.156,inactive: -0.053,inactive: -0.013,inactive: -0.008,inactive: -0.063,inactive: -0.055,inactive: -0.017,inactive: 0.042,inactive: -0.115,inactive: -0.016,active: -0.24,inactive: 0.114,inactive: 0.019,inactive: 0.022,inactive: 0.017
GFM1 (UniProt Q96RP9),inactive: 0.026,inactive: -0.019,inactive: -0.024,inactive: -0.002,inactive: 0.03,inactive: 0.032,inactive: 0.005,inactive: 0.02,inactive: -0.004,inactive: 0.019,inactive: -0.043,inactive: 0.043,inactive: 0.015,inactive: 0.016,inactive: 0.01
GFI1B (UniProt Q5VTD9),inactive: 0.383,inactive: -0.301,inactive: -0.153,inactive: -0.344,inactive: -0.043,inactive: -0.173,inactive: 0.139,inactive: 0.144,inactive: 0.2,–,inactive: -0.772,inactive: 0.057,inactive: -0.294,–,inactive: -0.113
FUOM (UniProt A2VDF0),inactive: -0.002,inactive: -0.129,inactive: -0.031,inactive: 0.011,inactive: -0.061,–,inactive: 0.306,–,inactive: 0.097,inactive: 0.03,inactive: 0.262,inactive: -0.16,–,inactive: 0.024,inactive: -0.071

# Given bar-delimited: part of the list above
Target | log2 fold change (nilotinib) | log2 fold change [1] | log2 fold change (dasatinib) | log2 fold change [2] | log2 fold change [3] | log2 fold change (quisinostat) | log2 fold change (tipifarnib) | log2 fold change [4] | log2 fold change [5] | log2 fold change [6] | log2 fold change (vorinostat) | log2 fold change (silmitasertib) | log2 fold change [7] | log2 fold change (entospletinib) | log2 fold change [8]
GDF15 (UniProt Q99988) | inactive: 0.146 | inactive: 0.065 | inactive: 0.119 | inactive: -0.01 | inactive: -0.095 | inactive: 0.007 | inactive: 0.066 | inactive: -0.043 | inactive: 0.089 | inactive: 0.081 | inactive: 0.043 | inactive: 0.065 | inactive: -0.12 | – | –
FURIN (UniProt P09958) | inactive: -0.018 | inactive: -0.122 | inactive: 0.131 | inactive: -0.007 | inactive: -0.04 | inactive: -0.009 | inactive: 0.03 | inactive: 0.027 | inactive: -0.032 | inactive: 0.024 | inactive: 0.048 | inactive: -0.045 | inactive: 0.008 | inactive: 0.123 | –
FPGS (UniProt Q05932) | inactive: 0.024 | inactive: 0.074 | inactive: 0.041 | inactive: 0.016 | inactive: -0.025 | – | inactive: -0.045 | – | – | – | – | – | – | inactive: -0.224 | –
